Article PMC7083937, “The ribosome-associated complex RAC serves in a relay that directs nascent chains to Ssb” (Nature Communications, 2020)
These are yes or no findings as the source states them, for the method shown. In cells and extracts the contact can be indirect. A result given as binding can be weak or reduced; the word gives no strength.

By UniProt entry, the sequences of proteins in these tests, tags left out. Where a name states a change or a piece, a line headed by the entry shows the natural chain unless it says otherwise.
UniProt P32527: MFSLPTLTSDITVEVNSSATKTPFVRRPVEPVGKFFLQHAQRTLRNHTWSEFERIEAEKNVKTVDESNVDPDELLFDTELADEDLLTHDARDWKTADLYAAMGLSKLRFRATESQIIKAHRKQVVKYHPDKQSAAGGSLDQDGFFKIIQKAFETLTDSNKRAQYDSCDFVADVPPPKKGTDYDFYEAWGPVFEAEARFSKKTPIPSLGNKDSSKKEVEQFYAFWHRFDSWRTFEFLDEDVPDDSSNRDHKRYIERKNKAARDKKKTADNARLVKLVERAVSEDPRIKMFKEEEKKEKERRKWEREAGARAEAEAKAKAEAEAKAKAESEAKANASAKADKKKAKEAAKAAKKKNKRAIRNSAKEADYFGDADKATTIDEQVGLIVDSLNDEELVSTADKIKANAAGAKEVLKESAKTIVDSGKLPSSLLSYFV

How the values were obtained:
[1] = target: T1, nascent Pgk1-100 (100 residues) (S. cerevisiae) (UniProt P00560); test: cross-linking; as a4, ribosome-free extract from Δzuo1 expressing Zuo1-ΔN49 (Ssb, Zuo1-ΔN49, Ssz1) added
T1 sequence (chain, [35S]-methionine labelled): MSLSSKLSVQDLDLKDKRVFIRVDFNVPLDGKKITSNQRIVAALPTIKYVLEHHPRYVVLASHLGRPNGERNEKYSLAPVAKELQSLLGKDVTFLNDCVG

[2] = target: T1, nascent Pgk1-100 (100 residues) (S. cerevisiae); test: cross-linking; as a10; RNCs isolated, LP-peptide or NR-peptide added to the resuspended RNCs before the cross-linking reaction; nascent chain with Ssz1 or Zuo1-ΔN8
[3] = target: T1, nascent Pgk1-100 (100 residues) (S. cerevisiae); test: cross-linking; as a9, ribosome-free extract from Δssb1Δssb2 RAC-ΔN8 (Zuo1-ΔN8, Ssz1) added
[4] = target: T1, nascent Pgk1-100 (100 residues) (S. cerevisiae); test: cross-linking; as a9, ribosome-free extract from Δssb1Δssb2 RACmut-ΔN8 (Zuo1-ΔN8, Ssz1mut) added

Substance	binding [1]	binding [2]	binding [3]	binding [4]
Zuo1-ΔN49 (N-terminally truncated Zuo1) (from UniProt P32527) (domain or fragment)	binds	–	–	–
Zuo1-ΔN8 (Zuo1 with a deletion of the LP-motif) (from UniProt P32527) (domain or fragment)	–	binds	binds	binds
